Reference: paper doi:10.1101/186023
No constants are given. Whether binding was seen depends on the method and setting. In cells and extracts the contact can be indirect. Some entries that bind do so weakly or less than the wild type.

By UniProt entry, the sequences of proteins in these tests, tags left out.
UniProt P26361: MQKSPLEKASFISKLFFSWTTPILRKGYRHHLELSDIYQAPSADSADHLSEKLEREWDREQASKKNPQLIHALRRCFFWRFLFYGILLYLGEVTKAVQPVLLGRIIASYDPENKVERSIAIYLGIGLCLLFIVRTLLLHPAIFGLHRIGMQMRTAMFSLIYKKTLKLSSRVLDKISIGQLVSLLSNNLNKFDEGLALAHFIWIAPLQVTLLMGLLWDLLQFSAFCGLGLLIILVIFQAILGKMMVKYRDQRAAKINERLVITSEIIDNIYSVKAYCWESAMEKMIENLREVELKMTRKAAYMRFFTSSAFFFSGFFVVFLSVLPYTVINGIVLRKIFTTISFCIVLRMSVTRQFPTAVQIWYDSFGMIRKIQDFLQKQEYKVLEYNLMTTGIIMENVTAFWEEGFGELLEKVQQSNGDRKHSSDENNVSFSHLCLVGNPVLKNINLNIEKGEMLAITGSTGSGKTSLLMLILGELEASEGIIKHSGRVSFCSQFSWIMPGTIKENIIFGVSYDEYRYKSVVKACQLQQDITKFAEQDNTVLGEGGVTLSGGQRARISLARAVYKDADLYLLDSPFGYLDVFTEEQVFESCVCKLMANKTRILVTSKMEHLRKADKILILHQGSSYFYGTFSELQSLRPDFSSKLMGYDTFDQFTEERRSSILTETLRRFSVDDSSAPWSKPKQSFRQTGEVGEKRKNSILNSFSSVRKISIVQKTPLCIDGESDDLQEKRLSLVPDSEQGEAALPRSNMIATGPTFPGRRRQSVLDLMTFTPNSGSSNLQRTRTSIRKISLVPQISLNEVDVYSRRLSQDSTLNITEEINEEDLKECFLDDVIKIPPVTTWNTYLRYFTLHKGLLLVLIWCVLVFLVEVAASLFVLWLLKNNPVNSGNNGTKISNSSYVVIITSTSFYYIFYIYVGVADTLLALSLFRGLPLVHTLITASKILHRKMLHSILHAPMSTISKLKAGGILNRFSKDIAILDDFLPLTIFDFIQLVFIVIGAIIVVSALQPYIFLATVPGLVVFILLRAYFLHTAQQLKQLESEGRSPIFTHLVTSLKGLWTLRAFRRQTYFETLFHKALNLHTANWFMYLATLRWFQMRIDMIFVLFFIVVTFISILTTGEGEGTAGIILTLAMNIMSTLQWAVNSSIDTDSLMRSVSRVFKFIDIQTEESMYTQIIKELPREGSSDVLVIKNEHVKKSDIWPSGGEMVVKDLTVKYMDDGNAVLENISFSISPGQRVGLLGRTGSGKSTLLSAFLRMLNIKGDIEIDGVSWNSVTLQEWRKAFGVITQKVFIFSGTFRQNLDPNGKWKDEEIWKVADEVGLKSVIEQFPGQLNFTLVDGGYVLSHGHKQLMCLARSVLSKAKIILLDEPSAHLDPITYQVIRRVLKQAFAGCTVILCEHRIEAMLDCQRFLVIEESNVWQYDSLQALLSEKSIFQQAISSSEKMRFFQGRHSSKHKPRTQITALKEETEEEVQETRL
UniProt Q9JL06: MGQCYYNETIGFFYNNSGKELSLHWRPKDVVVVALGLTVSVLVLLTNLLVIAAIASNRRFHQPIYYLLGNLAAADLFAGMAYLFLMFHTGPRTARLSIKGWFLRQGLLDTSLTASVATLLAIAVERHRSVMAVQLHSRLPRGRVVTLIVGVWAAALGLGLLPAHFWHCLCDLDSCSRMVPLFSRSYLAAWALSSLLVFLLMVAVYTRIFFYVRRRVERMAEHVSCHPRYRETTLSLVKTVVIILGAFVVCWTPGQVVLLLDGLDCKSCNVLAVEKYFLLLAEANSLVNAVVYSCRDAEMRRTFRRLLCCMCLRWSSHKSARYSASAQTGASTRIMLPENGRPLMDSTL
UniProt Q9JHL1: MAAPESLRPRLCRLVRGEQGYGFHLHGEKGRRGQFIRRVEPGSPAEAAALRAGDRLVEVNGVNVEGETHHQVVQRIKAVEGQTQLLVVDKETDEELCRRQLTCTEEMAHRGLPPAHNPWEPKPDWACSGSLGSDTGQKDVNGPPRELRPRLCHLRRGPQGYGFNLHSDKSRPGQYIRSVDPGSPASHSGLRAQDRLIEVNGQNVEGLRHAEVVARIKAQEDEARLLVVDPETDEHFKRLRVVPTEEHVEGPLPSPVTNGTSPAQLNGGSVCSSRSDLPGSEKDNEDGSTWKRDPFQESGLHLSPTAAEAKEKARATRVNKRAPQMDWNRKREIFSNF

What was measured:
[1] = molecular target: CFTR (mouse (endogenous in mICcl2)) (UniProt P26361); experiment: co-IP
[2] = molecular target: CFTR (mouse (endogenous in mICcl2)) (UniProt P26361); experiment: proximity ligation

binding [1] | binding [2] | Substance
binds | binds | LPA2 (from UniProt Q9JL06 1-348) (receptor)
binds | binds | NHERF2 (from UniProt Q9JHL1 1-337)
